Some results were stated once for a whole list of compounds, not compound by compound.
Key:
Assay type in all cases: in vivo
[1] = tested on: Spodoptera littoralis (Egyptian Cotton Leafworm); assay: Spodoptera littoralis cotton leaf disc spray test; conditions: 200 ppm sprayed on cotton leaf discs, L1 larvae, 3 days after treatment; mortality, repellent effect, feeding behaviour, growth regulation
Method: (§1) Test against were performed as follows:
Spodoptera littoralis (Egyptian Cotton Leafworm)

[2] = tested on: Heliothis virescens (Tobacco Budworm); assay: Heliothis virescens egg/larva test on artificial diet; conditions: 200 ppm by pipetting, eggs 0-24 h old on artificial diet, 4 days incubation; egg mortality, larval mortality, growth regulation
[3] = tested on: Aedes aegypti (Yellow Fever Mosquito); conditions: 2 ppm, L2 larvae with nutrition mixture, 2 days; mortality and growth inhibition
Method: as §1
Bean leaf discs on agar in 24-well microtiter plates wer sprayed with test solutions at an application rate of 200 ppm. After drying, the leaf discs are infested with mite populations of mixed ages. 8 days later, discs are checked for egg mortality, larval mortality, and adult mortality. […] Aedes aegypti (Yellow Fever Mosquito): 10-15 Aedes larvae (L2) together with a nutrition mixture are placed in 96-well microtiter plates. Test solutions at an application rate of 2 ppm are pipetted into the wells. 2 days later, insects were checked for mortality and growth inhibition.

Row | Compound | control of Spodoptera littoralis [1] | control of Heliothis virescens [2] | control of Aedes aegypti [3]
1 | O=C(c1ccnc(Cl)c1)N1CC2(CCN(C/C=C/c3ccc(Cl)cc3)CC2)c2c(Cl)cccc21 [Compound I-12] | at least 80% | at least 80% | at least 80%
2 | O=C(c1ccnc(Cl)c1)N1CC2(CCN(C/C=C/c3ccccc3)CC2)c2cc(Cl)ccc21 [Compound I-21] | at least 80% | at least 80% | at least 80%
3 | O=C(c1ccnc(Cl)c1)N1CC2(CCN(C/C=C/c3ccc(Cl)cc3)CC2)c2cc(Cl)ccc21 [Compound I-22] | at least 80% | – | at least 80%
4 | O=C(c1ccnc(Cl)c1)N1CC2(CCN(C/C=C/c3ccc(F)cc3)CC2)c2cc(Cl)ccc21 [Compound I-23] | at least 80% | – | at least 80%
5 | O=C(c1ccnc(Cl)c1)N1CC2(CCN(C/C=C/c3ccc(Cl)cc3)CC2)c2ccc(Cl)cc21 [Compound I-32] | at least 80% | at least 80% | at least 80%
6 | O=C(c1ccnc(Cl)c1)N1CC2(CCN(C/C=C/c3ccc(Cl)cc3)CC2)c2c(F)cccc21 [Compound I-52] | at least 80% | at least 80% | at least 80%
7 | O=C(c1ccnc(Cl)c1)N1CC2(CCN(C/C=C/c3ccccc3)CC2)c2cc(F)ccc21 [Compound I-61] | at least 80% | at least 80% | at least 80%
8 | O=C(c1ccnc(Cl)c1)N1CC2(CCN(C/C=C/c3ccc(Cl)cc3)CC2)c2cc(F)ccc21 [Compound I-62] | at least 80% | at least 80% | at least 80%
9 | O=C(c1ccnc(Cl)c1)N1CC2(CCN(C/C=C/c3ccc(Cl)cc3)CC2)c2ccc(F)cc21 [Compound I-72] | at least 80% | at least 80% | at least 80%
10 | O=C(c1ccnc(Cl)c1)N1CC2(CCN(C/C=C/c3ccc(Cl)cc3)CC2)c2cccc(F)c21 [Compound I-82] | at least 80% | at least 80% | at least 80%
11 | O=C(c1ccnc(Cl)c1)N1CC2(CCN(C/C=C/c3ccc(Cl)cc3)CC2)c2c(Br)cccc21 [Compound I-92] | at least 80% | at least 80% | at least 80%
12 | O=C(c1ccnc(Cl)c1)N1CC2(CCN(C/C=C/c3ccc(Cl)cc3)CC2)c2ccc(Br)cc21 [Compound I-112] | at least 80% | at least 80% | at least 80%
13 | O=C(c1ccnc(Cl)c1)N1CC2(CCN(C/C=C/c3ccc(Cl)cc3)CC2)c2cc(Cl)cc(Cl)c21 [Compound I-132] | at least 80% | at least 80% | at least 80%
14 | CCOc1ccc2c(c1)C1(CCN(C/C=C/c3ccc(Cl)cc3)CC1)CN2C(=O)c1ccnc(Cl)c1 [XXX-11] | at least 80% | – | at least 80%
15 | O=C(c1ccnc(Cl)c1)N1CC2(CCN(C/C=C/c3ccc(Cl)cc3)CC2)c2cc(OC(F)(F)F)ccc21 [XXX-30] | at least 80% | – | at least 80%
16 | Cc1cc(C)c2c(c1)C1(CCN(C/C=C/c3ccc(Cl)cc3)CC1)CN2C(=O)c1ccnc(Cl)c1 [XXX-36] | at least 80% | at least 80% | –
17 | O=C(c1ccnc(Cl)c1)N1CC2(CCN(C/C=C/c3ccc(Cl)cc3)CC2)c2c(Cl)cc(Cl)cc21 [XXX-39] | at least 80% | – | at least 80%

Row | Compound | control of Spodoptera littoralis [1] | control of Heliothis virescens [2] | control of Aedes aegypti [3]
18 | CC(C)c1ccc2c(c1)C1(CCN(C/C=C/c3ccc(Cl)cc3)CC1)CN2C(=O)c1ccnc(Cl)c1 [XXX-41] | at least 80% | at least 80% | –
19 | Cc1ccc2c(c1C)N(C(=O)c1ccnc(Cl)c1)CC21CCN(C/C=C/c2ccc(Cl)cc2)CC1 [XXX-43] | at least 80% | at least 80% | –
20 | C=Cc1ccc(/C=C/CN2CCC3(CC2)CN(C(=O)c2ccnc(Cl)c2)c2ccc(Cl)cc23)cc1 [XXX-52] | at least 80% | – | at least 80%
21 | O=C(c1ccnc(Cl)c1)N1CC2(CCN(C/C=C/c3ccc([N+](=O)[O-])cc3)CC2)c2cc(Cl)ccc21 [XXX-55] | at least 80% | at least 80% | –
22 | COc1cccc(OC)c1/C=C/CN1CCC2(CC1)CN(C(=O)c1ccnc(Cl)c1)c1ccc(Cl)cc12 [XXX-65] | at least 80% | at least 80% | –
23 | CCOc1ccc(/C=C/CN2CCC3(CC2)CN(C(=O)c2ccnc(Cl)c2)c2ccc(Cl)cc23)cc1 [XXX-66] | at least 80% | – | at least 80%
24 | N#Cc1ccc(/C=C/CN2CCC3(CC2)CN(C(=O)c2ccnc(Cl)c2)c2ccc(Cl)cc23)cc1 [XXX-70] | at least 80% | – | at least 80%
25 | C/C(=C\CN1CCC2(CC1)CN(C(=O)c1ccnc(Cl)c1)c1ccc(Cl)cc12)c1ccc(F)cc1 [XXX-84] | at least 80% | – | at least 80%
26 | O=C(c1ccnc(Cl)c1)N1CC2(CCN(C/C=C/c3ccc(OC(F)(F)F)cc3)CC2)c2cc(Cl)ccc21 [XXX-86] | at least 80% | – | at least 80%
27 | O=C(c1ccnc(Cl)c1)N1CC2(CCN(C/C=C(\F)c3ccc(Cl)cc3)CC2)c2cc(Cl)ccc21 [XXX-89] | at least 80% | at least 80% | –
28 | O=C(NN1CC2(CCN(C/C=C/c3ccc(Cl)cc3)CC2)c2cc(Cl)ccc21)c1ccncc1Cl [XXX-99] | at least 80% | at least 80% | –
29 | CC(C)NC(=O)N1CC2(CCN(C/C=C/c3ccc(Cl)cc3)CC2)c2cc(F)ccc21 [XXX-104] | at least 80% | – | at least 80%
30 | O=C(NCCO)N1CC2(CCN(C/C=C/c3ccc(Cl)cc3)CC2)c2cc(F)ccc21 [XXX-107] | at least 80% | at least 80% | –
31 | O=C(NCc1ccccc1)N1CC2(CCN(C/C=C/c3ccc(Cl)cc3)CC2)c2cc(F)ccc21 [XXX-112] | at least 80% | at least 80% | –
32 | O=C(c1ccnc(Cl)c1)N1CC2(CCN(C/C=C/C=Cc3ccccc3)CC2)c2cc(Cl)ccc21 [XXXI-5] | at least 80% | – | at least 80%
33 | O=C(c1ccnc(Cl)c1)N1CC2(CCN(C/C=C/Br)CC2)c2cc(Cl)ccc21 [XXXI-8] | at least 80% | – | at least 80%

Source: US9686990B2, “Spiroindolinepiperidine derivatives” (priority 2002, dated 2017)
